These results are taken from PubChem BioAssay AID493014 (National Center for Advancing Translational Sciences (NCATS), 2011).

The structures appear in SMILES notation. Some of the results follow. These are further read-outs of the screen, such as a control signal, another cell line or another target. No call is given for them. The list favours compounds with an active or inconclusive main result. The note in brackets gives the kind of curve behind each potency; many fits are weak.

This experiment can be described thus: qHTS Assay to Find Inhibitors of Chronic Active B-Cell Receptor Signaling. The settings on record: ABC-DLBCL IkBa-CBG/CBR reporter, luminescence ratio (green luciferase fused to IkBa over red control in TMD8 lymphoma cells), 4 h. The procedure, abridged:
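Cell line TMD8 (human ABC DLBCL), stably expressing tet-inducible CBG68-IkBa fusion and CBR; IMDM/0.5% FBS; cpd up to 46 uM; dox induction, 4 h, 37C/5% CO2; dual luminescence; green/red ratio; MG132 control.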
(In general: Quantitative high-throughput screening tests each substance at several concentrations.)

Where [1] appears, read: measured here: CBR red luminescence, cell number.
The mark [2] stands for this setting: measured here: IkBa-CBG green luminescence.

On to `C[C@H](CO)N1C[C@H](C)[C@@H](CN(C)S(=O)(=O)c2cccs2)Oc2ccc(NS(=O)(=O)c3ccccc3)cc2C1=O`, for which the AC50 under setting [1] is 3.66 µM [rising, full curve].
Still for that read-out and setting: under `Cc1ccc(CNC(=O)c2ccc(COc3ccccc3)cc2)cc1` stands 11.6 µM [rising, partial curve, poor fit]; under `CC(=O)c1ccc(NC(=O)Nc2ccc(Cl)cc2)cc1`, 25.9 µM [falling, single point].
For the compound `C(=C\c1ccccc1)/C=N/Nc1nc2ccccc2[nH]1`, the AC50 by setting is: under setting [1], 20.6 µM [falling, partial curve]; under setting [2], 18.4 µM [falling, single point].
Take `Oc1ccc(/C=N\Nc2nncc(-c3ccccc3)n2)cc1`: the AC50 under setting [1] is 7.94 µM [falling, partial curve].
On to `Cc1ccc(S(=O)(=O)N2[C@@H](c3ccc(C(C)(C)C)cc3)C(C(=O)O)=CC[C@H]2c2ccc(C(C)C)cc2)cc1`, for which, under setting [1], the AC50 was 2.06 µM [rising, partial curve, poor fit].
Same read-out and setting: under `O=C1OCCC1Sc1nnc(-c2ccc(O)cc2)o1` (stereo not drawn) stands 11.2 µM [falling, partial curve, poor fit].
In the case of `CCOC(=O)C1CCCN(C(=O)CSc2nnnn2C)C1` (stereo not drawn), under setting [1], the AC50 was 25.9 µM [rising, single point].
In the case of `C[C@H](NC(=O)C1CCN(S(=O)(=O)c2ccccc2)CC1)C(=O)NCc1ccc(Cl)c(Cl)c1`, under setting [1], the AC50 was 12.6 µM [falling, single point].
`CCOc1cc(-c2nc3ccccn3c2NCC2CCCO2)ccc1O` (stereo not drawn): the AC50 under setting [1] was 0.651 µM [falling, partial curve, poor fit].
The same measure, in the same setting: under `CCc1cccc(NC(=O)Cn2cc3c(n2)CCCC3)c1` stands 29.1 µM [rising, partial curve, poor fit]; under `CCc1nc2sc3ccccc3c(=O)c2c(=O)n1Cc1ccco1`, 9.2 µM [falling, partial curve, poor fit].
Regarding `COC(=O)CCCNc1ncccc1[N+](=O)[O-]`, the half-maximal activity concentration (AC50) under setting [1] is 35.5 µM [rising, single point].
For `COc1ccc2nc(NC(=O)CSc3nc(SC)ns3)sc2c1`, the half-maximal activity concentration (AC50) under setting [1] was 0.184 µM [rising, full curve, poor fit].
With `O=C1C=CC(=O)N1c1ccc(O)cc1`, the AC50 runs as follows: under setting [1], 12.6 µM [falling, partial curve]; under setting [2], 28.2 µM [rising, partial curve, poor fit].
Regarding `CC1=C(C)CC(C(=O)NNC(=O)c2csc(C)c2C)C(C(=O)O)C1` (stereo not drawn), the AC50 under setting [1] was 4.61 µM [falling, partial curve].
For the compound `COc1ccccc1C(=O)NCCCNc1ccc([N+](=O)[O-])cc1`, under setting [1], the AC50 is 0.184 µM [rising, full curve, poor fit].
On to `COc1cc(/C=C/C(=O)c2ccc(NS(=O)(=O)c3ccc(C)cc3)cc2)cc(OC)c1O`, for which the AC50 under setting [1] is 25.9 µM [falling, single point].
The same measure, in the same setting: under `O=C(N/N=C/c1sc(N2CCOCC2)nc1-c1ccccc1)c1cccc(S(=O)(=O)N2CCOCC2)c1` stands 1.26 µM [rising, full curve, poor fit]; under `CCOc1cc(/C=N/N2C(=O)NC3(CCCCC3)C2=O)cc(Br)c1O`, 20 µM [rising, single point].
The same measure, in the same setting: in the case of `CC(c1ccco1)N(C(=O)c1ccccc1NS(=O)(=O)c1cccc([N+](=O)[O-])c1)c1ccccn1` (stereo not drawn) it was 29.1 µM [rising, single point].
On to `CCCC(=O)NC(c1ccccc1)c1ccc2cccnc2c1O` (stereo not drawn), for which the AC50 under setting [1] was 17.8 µM [falling, partial curve, poor fit].
As for `c1ccc(Sc2ncnc3ccccc23)cc1`, the AC50 under setting [1] was 3.16 µM [falling, partial curve, poor fit].
As for `COc1ccc(Cl)cc1NC(=O)CN(C)C(=O)c1cc2ccccc2cc1O`, the concentration at half-maximal activity (AC50) under setting [1] is 29.1 µM [falling, single point].
The same measure, in the same setting: in the case of `CN(CC(=O)Nc1ccccc1Br)c1ncnc2sccc12` it was 3.98 µM [rising, full curve, poor fit].
Still for that read-out and setting: in the case of `NC(=O)COC(=O)c1ccc(Cl)c(S(=O)(=O)N(Cc2ccccc2)c2ccc(Cl)cc2)c1` it was 20.6 µM [falling, partial curve].
On the same count and under the same terms, in the case of `Cc1ccc(C2CC(=O)Oc3cc(O)ccc32)cc1` (stereo not drawn) it was 0.103 µM [rising, full curve, poor fit]; in that of `N#CCCN(C(=O)Nc1ccccc1)c1ccccc1`, 0.517 µM [rising, full curve, poor fit].
On to `COc1cc2c(cc1OC)-c1cc(NC3CCCCCC3)nc(=O)n1CC2`, for which the AC50 under setting [2] is 5.01 µM [falling, partial curve].
Turning to `Cc1ccsc1/C=N/NC(=O)c1ccc2ccccc2c1`, under setting [1], the AC50 was 11.2 µM [falling, partial curve].
In the case of `COc1ccccc1C(=O)NC1CCCCCCC1`, under setting [1], the AC50 is 10.3 µM [rising, partial curve, poor fit].
`COc1ccc(S(=O)(=O)N2CCCCCC2)cc1C(=O)N(C)CC(=O)Nc1ccc(Cl)c(Cl)c1`: the AC50 under setting [1] was 29.1 µM [falling, single point].
For the compound `CCN(c1ccc(NC(=O)CSCc2c(C)noc2C)cc1)C(C)C`, the concentration at half-maximal activity (AC50) under setting [1] was 29.1 µM [rising, single point].
Turning to `COc1ccc(C(CNC(=O)c2ccc(S(=O)(=O)N3CC(C)CC(C)C3)cc2)N(C)C)cc1` (stereo not drawn), the AC50 was 6.51 µM [rising, single point] under setting [1] and 2.91 µM [falling, single point] under setting [2].
In the case of `Cc1ccc2nc(N/C(=N/S(=O)(=O)c3ccc(F)cc3)c3ccccc3)sc2c1`, the half-maximal activity concentration (AC50) under setting [1] was 0.794 µM [falling, full curve].
For `CC1CN(C(=O)c2cccc(COc3ccccc3Cl)c2)CC(C)O1` (stereo not drawn), the AC50 under setting [1] is 1.12 µM [rising, partial curve, poor fit].
With `NC(=O)/C=C/C(=O)Nc1ccc(Cl)cc1`, the AC50 is 12.6 µM [falling, partial curve] under setting [1] and 15.8 µM [rising, partial curve, poor fit] under setting [2].
For the compound `NC(N)=N/N=C/c1cccc(Cl)c1Cl`, the half-maximal activity concentration (AC50) under setting [1] was 14.1 µM [falling, partial curve, poor fit].
Take `O=C(NCc1ccc2c(c1)CCN2C(=O)c1ccc(F)cc1)c1ccc(Br)o1`: the AC50 under setting [1] is 8.91 µM [falling, partial curve, poor fit].
Still for that read-out and setting: under `COc1cccc(/C=N/n2c(-c3ccco3)nc3ccccc3c2=O)c1` stands 0.411 µM [falling, full curve]; under `COc1ccc2[nH]c(=O)c(COC(=O)c3ccco3)cc2c1`, 29.1 µM [rising, single point].
Same read-out and setting: in the case of `Cc1c(C(=O)/C=C/N(C)C)nnn1-c1ccc(Cl)c(Cl)c1` it was 35.5 µM [rising, single point].
As to `CCN1c2ccccc2-c2nc3ccccc3n2C1c1cccnc1` (stereo not drawn), under setting [1], the concentration at half-maximal activity (AC50) was 3.98 µM [falling, full curve, poor fit].
`COCc1cc(=O)[nH]c(/N=C(\N)Nc2cccc(C)c2)n1`: under setting [1], the AC50 was 25.9 µM [falling, partial curve, poor fit].
Regarding `NC(=O)c1ccc[n+](CC(=O)c2ccccc2)c1`, the AC50 under setting [1] is 3.98 µM [rising, single point].
Take `CCc1ccc(/C(C)=N\Nc2ccc([N+](=O)[O-])cc2)cc1`: under setting [1], the AC50 was 11.2 µM [rising, partial curve].
`O=C(NCCCN1CCOCC1)C(=O)N/N=C/c1ccc(F)cc1`: the concentration at half-maximal activity (AC50) under setting [1] is 3.16 µM [falling, single point].
Take `CCSc1ccccc1C(=O)NCCc1ccccc1`: the AC50 under setting [1] was 22.4 µM [rising, single point].
With `O=c1nc(Nc2ccccc2)oc2ccccc12`, the AC50 under setting [1] was 6.31 µM [falling, partial curve].
Still for that read-out and setting: under `COC(=O)CSc1nc(C)c(C(C)=O)cc1C#N` stands 7.31 µM [falling, partial curve]; under `CCOc1ccccc1NC(=O)NNS(=O)(=O)c1ccc([N+](=O)[O-])cc1`, 0.631 µM [falling, full curve, poor fit]; under `COc1ccccc1OCc1csc(NC(=O)c2ccco2)n1`, 17.8 µM [falling, single point].
Same read-out and setting: under `CC(=O)N1N=C(c2c(-c3ccccc3)c3cc(Br)ccc3[nH]c2=O)CC1c1ccco1` (stereo not drawn) stands 10 µM [falling, partial curve, poor fit]; under `CN(C(=O)c1cccc(C#N)c1)c1nnc(-c2ccccn2)s1`, 0.461 µM [rising, full curve, poor fit].
Regarding `O=c1[nH][nH]c(-c2ccccc2O)c1C(C[N+](=O)[O-])c1cccc(Cl)c1` (stereo not drawn), the half-maximal activity concentration (AC50) is 20.6 µM [falling, single point] under setting [1] and 29.1 µM [falling, partial curve, poor fit] under setting [2].
As to `Cc1cc(=O)n2nc(-c3ccc(C(F)(F)F)cc3)sc2n1`, under setting [1], the AC50 was 2.06 µM [rising, partial curve, poor fit].
Consider `O=C(Nc1ccc(F)c(Cl)c1)Nc1cnccn1`, for which the AC50 under setting [1] was 14.1 µM [rising, single point].
As to `COC(=O)c1ccc(C)c(NC(=O)c2c(-c3ccccc3)noc2C)c1`, the AC50 under setting [1] was 23.1 µM [rising, single point].
As to `Cc1ccc(-c2nc(C(=O)NCCCN3CCOCC3)cc3c2[nH]c2ccccc23)cc1`, the AC50 is 35.5 µM [falling, single point] under setting [1] and 20 µM [rising, single point] under setting [2].
For the compound `Cc1ccc(NC(=O)c2cc(NC(=O)CCCC(=O)O)ccc2Cl)cc1Cl`, the AC50 under setting [1] was 11.2 µM [falling, partial curve, poor fit].
With `COC(CN(C(=O)CCl)C(C(=O)NC1CCCCC1)c1ccc(C)cc1)OC` (stereo not drawn), the AC50 under setting [1] was 29.1 µM [falling, single point].
As for `CCN1CCN(C(=O)c2ccc(N3CC4CC(C3)c3cccc(=O)n3C4)c([N+](=O)[O-])c2)CC1` (stereo not drawn), the concentration at half-maximal activity (AC50) under setting [1] was 12.6 µM [rising, single point].

A word on the AC50: it is the concentration giving half of the maximal activity seen.
